Data published in publication PMC5406014.
These are yes or no findings as the source states them, for the method shown. Binding seen in cells or lysates may run through a third protein. These calls come from enrichment with a bait or labelling near it, and not all partners need be listed. For part of these data: Where a sequence is shown, tags or fusion partners need not be part of it.

T1: myc-BirA-TRF1, P54274
T1 chain: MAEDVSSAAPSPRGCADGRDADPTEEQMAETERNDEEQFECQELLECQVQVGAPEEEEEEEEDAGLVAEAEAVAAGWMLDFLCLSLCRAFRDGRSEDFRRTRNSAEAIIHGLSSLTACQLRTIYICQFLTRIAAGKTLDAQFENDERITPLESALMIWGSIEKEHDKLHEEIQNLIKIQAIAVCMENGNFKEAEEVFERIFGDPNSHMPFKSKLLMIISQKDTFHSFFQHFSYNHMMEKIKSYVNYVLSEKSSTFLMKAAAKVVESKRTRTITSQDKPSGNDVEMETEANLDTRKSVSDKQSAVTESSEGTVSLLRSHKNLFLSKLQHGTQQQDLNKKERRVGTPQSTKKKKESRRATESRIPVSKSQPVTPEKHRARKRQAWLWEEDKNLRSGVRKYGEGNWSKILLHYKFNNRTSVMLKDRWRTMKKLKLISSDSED


Experiments:
myc-BirA-TRF1 [1] = target: myc-BirA-TRF1 (UniProt P54274); assay: proximity labelling; BioID in ALT+ U2OS cells stably expressing myc-BirA-TRF1; 50 µM biotin for 24 hr; streptavidin pull-down from ~6 x 10^7 cells, LC-MS in triplicate; myc-BirA cells as negative reference
myc-BirA-TRF1 [2] = target: myc-BirA-TRF1 (UniProt P54274); assay: proximity labelling; BioID in TEL+ HeLa LT cells stably expressing myc-BirA-TRF1; 50 µM biotin for 24 hr; streptavidin pull-down from ~6 x 10^7 cells, LC-MS in triplicate; myc-BirA cells as negative reference
myc-BirA-TRF1 [3] = target: myc-BirA-TRF1 (UniProt P54274); assay: proximity labelling; BioID in U2OS cells expressing myc-BirA-TRF1; 50 µM biotin for 24 hr; streptavidin pull-down read by western blot with specific antibodies
myc-BirA-TRF1, P54274 = target: T1, myc-BirA-TRF1, P54274; assay: as above; settings: remark: other sources report otherwise

| binding (myc-BirA-TRF1 [2]) | binding (myc-BirA-TRF1 [3]) | binding (myc-BirA-TRF1, P54274) | Binder | binding (myc-BirA-TRF1 [1]) |
| --- | --- | --- | --- | --- |
| binds | – | – | APOLLO (protein, UniProt Q9H816 1-532) MNGVLIPHTPIAVDFWSLRRAGTARLFFLSHMHSDHTVGLSSTWARPLYCSPITAHLLHRHLQVSKQWIQALEVGESHVLPLDEIGQETMTVTLLDANHCPGSVMFLFEGYFGTILYTGDFRYTPSMLKEPALTLGKQIHTLYLDNTNCNPALVLPSRQEAAHQIVQLIRKHPQHNIKIGLYSLGKESLLEQLALEFQTWVVLSPRRLELVQLLGLADVFTVEEKAGRIHAVDHMEICHSNMLRWNQTHPTIAILPTSRKIHSSHPDIHVIPYSDHSSYSELRAFVAALKPCQVVPIVSRRPCGGFQDSLSPRISVPLIPDSVQQYMSSSSRKPSLLWLLERRLKRPRTQGVVFESPEESADQSQADRDSKKAKKEKLSPWPADLEKQPSHHPLRIKKQLFPDLYSKEWNKAVPFCESQKRVTMLTAPLGFSVHLRSTDEEFISQKTREEIGLGSPLVPMGDDDGGPEATGNQSAWMGHGSPLSHSSKGTPLLATEFRGLALKYLLTPVNFFQAGYSSRRFDQQVEKYHKPC | binds |
| binds | binds | – | RAP1 (protein, UniProt Q9NYB0 1-399) MAEAMDLGKDPNGPTHSSTLFVRDDGSSMSFYVRPSPAKRRLSTLILHGGGTVCRVQEPGAVLLAQPGEALAEASGDFISTQYILDCVERNERLELEAYRLGPASAADTGSEAKPGALAEGAAEPEPQRHAGRIAFTDADDVAILTYVKENARSPSSVTGNALWKAMEKSSLTQHSWQSLKDRYLKHLRGQEHKYLLGDAPVSPSSQKLKRKAEEDPEAADSGEPQNKRTPDLPEEEYVKEEIQENEEAVKKMLVEATREFEEVVVDESPPDFEIHITMCDDDPPTPEEDSETQPDEEEEEEEEKVSQPEVGAAIKIIRQLMEKFNLDLSTVTQAFLKNSGELEATSAFLASGQRADGYPIWSRQDDIDLQKDDEDTREALVKKFGAQNVARRIEFRKK | binds |
| – | – | binds | TRF2, Q15554 1-542 (protein) MAAGAGTAGPASGPGVVRDPAASQPRKRPGREGGEGARRSDTMAGGGGSSDGSGRAAGRRASRSSGRARRGRHEPGLGGPAERGAGEARLEEAVNRWVLKFYFHEALRAFRGSRYGDFRQIRDIMQALLVRPLGKEHTVSRLLRVMQCLSRIEEGENLDCSFDMEAELTPLESAINVLEMIKTEFTLTEAVVESSRKLVKEAAVIICIKNKEFEKASKILKKHMSKDPTTQKLRNDLLNIIREKNLAHPVIQNFSYETFQQKMLRFLESHLDDAEPYLLTMAKKALKSESAASSTGKEDKQPAPGPVEKPPREPARQLRNPPTTIGMMTLKAAFKTLSGAQDSEAAFAKLDQKDLVLPTQALPASPALKNKRPRKDENESSAPADGEGGSELQPKNKRMTISRLVLEEDSQSTEPSAGLNSSQEAASAPPSKPTVLNQPLPGEKNPKVPKGKWNSSNGVEEKETWVEEDELFQVQAAPDEDSTTNITKKQKWTVEESEWVKAGVQKYGEGNWAAISKNYPFVNRTAVMIKDRWRTMKRLGMN | – |
